Results deposited as PubChem BioAssay AID652259 (Drosophila RNAi Screening Center, 2013).
Purpose: 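Identify new Wingless signalling regulators in fly cells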 (primary screen). Cells: Drosophila clone 8 imaginal disc epithelial cells. Reagents: long dsRNA against Drosophila genes. Challenge: pathway stimulated by co-transfected Wingless expression plasmid. Measured: 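Firefly luciferase from a tcf-site Wingless reporter, measured alongside co-transfected Renilla luciferase that tracks transfection; pathway stimulated by a Wingless plasmid; the firefly-to-Renilla ratio is not deposited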. Direction: firefly reporter light: higher = more Wg reporter light, before normalisation; Renilla control light: higher = more transfected or surviving cells. Rule for the call: 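a knock-down is a candidate when at least two out of four statistical tests show it departing from its plate mean; one test alone signals a weak candidate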. Meaning of the calls: active = candidate regulator (raises or lowers reporter); inactive = not a candidate.
The screen tested about 22,000 reagents; this is a random part of those with a known target gene and a result. Of all reagents, 233 (1.1%) were called active. 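Light values are raw, unnormalised plate reads; the ratio scores behind the reporter calls were not deposited.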 A number with no mark means an inactive call. A plus sign joins genes that one reagent is predicted to hit. Not stated in the record: the amount of reagent, the time to read-out, the dose of the treatment.

With knock-down of CG6567 + CG42394 [DRSC22241], the screen gave firefly reporter light, replicate 1 = 7.82e5; firefly reporter light, replicate 2 = 8.67e5; Renilla control light, replicate 1 = 4.09e5; Renilla control light, replicate 2 = 3.95e5.
With knock-down of CG14221 [DRSC19578], the record shows firefly reporter light, replicate 1 = 16109; Renilla control light, replicate 1 = 10280.
Knock-down of nmdyn-D7 [DRSC17016] came out at: firefly reporter light, replicate 1 = 13241; Renilla control light, replicate 1 = 3458.
With knock-down of CG2076 [DRSC19832], the screen gave firefly reporter light, replicate 1 = 20866; Renilla control light, replicate 1 = 10250.
Depletion of RpS28b (Ribosomal protein S28b) [DRSC18258] came out at: firefly reporter light, replicate 1 = 2620; firefly reporter light, replicate 2 = 5225; Renilla control light, replicate 1 = 579; Renilla control light, replicate 2 = 1981.
Depletion of Ssl (Suppressor of Stellate-like) [DRSC04657] came out at: firefly reporter light, replicate 1 = 2322; firefly reporter light, replicate 2 = 6851; Renilla control light, replicate 1 = 728; Renilla control light, replicate 2 = 2180.
After knock-down of qin [DRSC14782], the record shows firefly reporter light, replicate 1 = 14973; Renilla control light, replicate 1 = 3533.
Silencing of qin [DRSC14785] resulted in: firefly reporter light, replicate 1 = 17883; Renilla control light, replicate 1 = 3916.
CG12116 [DRSC17812] showed firefly reporter light, replicate 1 = 18074; Renilla control light, replicate 1 = 10000.
With knock-down of Ntan1 (N-terminal amidohydrolase 1) [DRSC07546], the screen gave firefly reporter light, replicate 1 = 9728; Renilla control light, replicate 1 = 2759.
With knock-down of CG31997 [DRSC17105], the screen gave firefly reporter light, replicate 1 = 2000; Renilla control light, replicate 1 = 1136.
For CG32568 [DRSC19913], the values are firefly reporter light, replicate 1 = 21593; Renilla control light, replicate 1 = 8304.
With knock-down of CG43190 [DRSC05316] the results were firefly reporter light, replicate 1 = 13616; Renilla control light, replicate 1 = 11043.
With knock-down of CG8435 [DRSC07179], the record shows firefly reporter light, replicate 1 = 13164; Renilla control light, replicate 1 = 1544.
ABCB7 (ATP binding cassette subfamily B member 7) [DRSC08603] gave firefly reporter light, replicate 1 = 4497; Renilla control light, replicate 1 = 2485.
Tssk (Testis-specific serine/threonine kinase) [DRSC14784] gave firefly reporter light, replicate 1 = 11532; Renilla control light, replicate 1 = 2835.

Sorted by “firefly reporter light, replicate 1” (low to high): some entries from above.
nmdyn-D7 [DRSC17016] — firefly reporter light, replicate 1: 13241; Renilla control light, replicate 1: 3458
CG14221 [DRSC19578] — firefly reporter light, replicate 1: 16109; Renilla control light, replicate 1: 10280
CG2076 [DRSC19832] — firefly reporter light, replicate 1: 20866; Renilla control light, replicate 1: 10250
CG6567 + CG42394 [DRSC22241] — firefly reporter light, replicate 1: 7.82e5; firefly reporter light, replicate 2: 8.67e5; Renilla control light, replicate 1: 4.09e5; Renilla control light, replicate 2: 3.95e5

Next records:
CG42686 (retired record) [DRSC15247] gave firefly reporter light, replicate 1 = 11170; Renilla control light, replicate 1 = 3017.
Against CG42686 (retired record) [DRSC15248] the deposit lists firefly reporter light, replicate 1 = 17129; Renilla control light, replicate 1 = 13988.
CG17985 [DRSC06702] gave firefly reporter light, replicate 1 = 3149; firefly reporter light, replicate 2 = 8973; Renilla control light, replicate 1 = 1242; Renilla control light, replicate 2 = 3394.
For CG43333 [DRSC01917] the deposit lists firefly reporter light, replicate 1 = 2157; firefly reporter light, replicate 2 = 7851; Renilla control light, replicate 1 = 896; Renilla control light, replicate 2 = 2387.
Against CG17493 [DRSC03798] the deposit lists firefly reporter light, replicate 1 = 2272; firefly reporter light, replicate 2 = 7691; Renilla control light, replicate 1 = 537; Renilla control light, replicate 2 = 2202.
otu (ovarian tumor) [DRSC18811] gave firefly reporter light, replicate 1 = 21492; Renilla control light, replicate 1 = 8681.
For agt (O-6-alkylguanine-DNA alkyltransferase) [DRSC12611], the entry reads firefly reporter light, replicate 1 = 10818; Renilla control light, replicate 1 = 2267.
p38b (p38b MAP kinase) [DRSC03586] scored firefly reporter light, replicate 1 = 3549; firefly reporter light, replicate 2 = 8083; Renilla control light, replicate 1 = 1517; Renilla control light, replicate 2 = 3273.
CG33655 [DRSC03858] showed firefly reporter light, replicate 1 = 15462; Renilla control light, replicate 1 = 8528.
